# Data as given in PMC6280682, “The Micronemal Plasmodium Proteins P36 and P52 Act in Concert to Establish the Replication-Permissive Compartment Within Infected Hepatocytes” (Frontiers in Cellular and Infection Microbiology, 2018).
# No constants are given. Whether binding was seen depends on the method and setting. Binding seen in cells or lysates may run through a third protein. A yes stands for co-enrichment or nearness to the bait. Other partners may have been found. For some of these results: A no says only that the protein was not detected with the bait. Tags and fused reporters may be left off the sequences shown.
# Experiments:
# [1] = target: T1, Plasmodium yoelii P52 with a C-terminal 4xMyc tag (P52^myc) (Plasmodium yoelii) (UniProt Q7K5V2); test: affinity purification with mass spectrometry; inverse pulldown: P52^myc immunoprecipitated from P52^myc sporozoite lysate with Myc-Trap; Py GFP-Luc sporozoite lysate as wild-type control; mass spectrometry
# T1 sequence: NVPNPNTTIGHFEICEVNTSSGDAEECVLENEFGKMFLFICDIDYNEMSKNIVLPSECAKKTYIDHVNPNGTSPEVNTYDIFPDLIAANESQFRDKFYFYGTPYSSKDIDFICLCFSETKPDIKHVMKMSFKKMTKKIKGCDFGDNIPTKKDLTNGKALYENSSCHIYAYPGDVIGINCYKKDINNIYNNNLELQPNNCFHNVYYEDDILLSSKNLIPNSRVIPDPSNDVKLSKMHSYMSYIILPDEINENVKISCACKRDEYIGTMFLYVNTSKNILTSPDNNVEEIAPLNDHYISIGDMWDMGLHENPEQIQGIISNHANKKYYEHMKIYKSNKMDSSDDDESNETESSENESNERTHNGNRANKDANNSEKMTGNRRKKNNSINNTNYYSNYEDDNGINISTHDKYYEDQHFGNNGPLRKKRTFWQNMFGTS
# [2] = target: T2, Plasmodium yoelii P36 with a C-terminal mCherry tag (P36^mCherry) (Plasmodium yoelii) (UniProt Q7RPW4); test: affinity purification with mass spectrometry; BS3-crosslinked P36^mCherry sporozoite lysate immunoprecipitated with RFP-Trap, S-Trap digest, LC-MS/MS (Q-Exactive HF), spectral counting
# T2 sequence: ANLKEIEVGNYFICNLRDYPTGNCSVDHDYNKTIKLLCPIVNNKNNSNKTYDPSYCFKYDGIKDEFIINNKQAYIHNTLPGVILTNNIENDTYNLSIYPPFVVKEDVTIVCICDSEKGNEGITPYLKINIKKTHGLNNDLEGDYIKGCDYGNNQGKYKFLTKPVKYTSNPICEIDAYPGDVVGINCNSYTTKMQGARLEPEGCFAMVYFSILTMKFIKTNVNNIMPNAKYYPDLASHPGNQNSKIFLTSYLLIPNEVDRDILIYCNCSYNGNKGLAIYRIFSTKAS
# [3] = target: T2, Plasmodium yoelii P36 with a C-terminal mCherry tag (P36^mCherry) (Plasmodium yoelii); test: affinity purification with mass spectrometry; RFP-Trap IP of P36^mCherry from non-crosslinked sporozoite lysate; SDS-PAGE fractions, in-gel tryptic digest, LC-MS/MS, spectral counting against wild-type IP and unconjugated beads
Substance,binding [1],binding [2],binding [3]
"thrombospondin-related anonymous protein (TRAP), Plasmodium yoelii",no binding,–,–
"HSP70-2/BiP, Plasmodium yoelii",binds,binds,binds
